The text below walks through data of paper PMC7819943, “Rice protein-binding microarrays: a tool to detect cis-acting elements near promoter regions in rice”.

By UniProt entry, the sequences of proteins in these tests, tags left out.
UniProt Q0JBA9, entry or part of it: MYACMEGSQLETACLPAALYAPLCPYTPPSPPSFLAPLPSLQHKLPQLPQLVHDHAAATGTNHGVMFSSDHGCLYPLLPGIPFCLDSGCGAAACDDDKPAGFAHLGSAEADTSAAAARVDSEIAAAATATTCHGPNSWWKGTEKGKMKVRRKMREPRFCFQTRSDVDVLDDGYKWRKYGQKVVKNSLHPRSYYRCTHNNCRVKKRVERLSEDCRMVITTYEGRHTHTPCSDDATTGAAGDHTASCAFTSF

This is one part of the list.

This experiment deals with OsWRKY34 (Oryza sativa, UniProt Q0JBA9 1-250). In words: protein-binding microarray (RPBM); PBS, 2% BSA, 51.3 ng/ul salmon testes DNA, 50 uM zinc acetate, 200 nM TF, 25 C, 1 h; high values mean tight binding. Conditions: protein: recombinant; tags: N-terminal polyhistidine and DsRed monomer fusion (pET32a); label: CyDye5-dUTP incorporated in the synthesized complementary strand; 3' TTTTT single-stranded linker to array surface; dsDNA, one strand shown. An outline of the steps: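 Polyhistidine-tagged DsRed fusions of transcription factors, joined at the N-terminus, were expressed in E. coli BL21-CodonPlus and isolated on Ni–NTA. They were incubated at 200 nM for 1 h at 25 °C on a custom Agilent array, double-stranded and BSA-blocked, in PBS with 2% BSA, salmon testes DNA and 50 µM zinc acetate. The binding signal is per-feature fluorescence intensity (arbitrary units) read on an Axon 4000B scanner after washing.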
For “TTTGCCATGATTTCCCACCCATCTTTAAATCCTAACAATTCGGAGTCACCTAGTGCAG”, the binding signal is 8190 fluorescence intensity (a.u.). Under “CCGCCGCCGCCGTTTTCTCCCGTCGTACGACGCTGCGTGTCGGAGTCACCTAGTGCAG” stands 9980 fluorescence intensity (a.u.); under “AATCTATCACGTCACACTATGAACAATCTGCCACGTCACACGGAGTCACCTAGTGCAG”, 8430 fluorescence intensity (a.u.); under “TGTTCCACCGTACCATTTCCCATTGGTAGTGTCATTTCCCCGGAGTCACCTAGTGCAG”, 8900 fluorescence intensity (a.u.).

Turning to “CCGTCTCGTCTCCTCCGCTACTTGCGCCATCCTCGGCTGACGGAGTCACCTAGTGCAG”, the binding signal is 8220 fluorescence intensity (a.u.). As to “AGTTGGTTACCCTGTTGTTGTCCGGCCTTCGTATGTTCTTCGGAGTCACCTAGTGCAG”, the binding signal is 11900 fluorescence intensity (a.u.). For “GGGTGTTTTCAGACGGAGAGAGGCGGCGGCGGCGGCGGGGCGGAGTCACCTAGTGCAG” the value was 18500 fluorescence intensity (a.u.). For “GGTTGAATGCAACTTCAAGTGGGCGAATTTGCAAACATTCCGGAGTCACCTAGTGCAG” the value was 8690 fluorescence intensity (a.u.); for “ATAGGATTGTTTCATGTGTTCAATTATCATCATAAATCTTCGGAGTCACCTAGTGCAG”, 8650 fluorescence intensity (a.u.); for “TGAACCACATGCTATTCAATATTATGTCATACATGCTGTCCGGAGTCACCTAGTGCAG”, 8800 fluorescence intensity (a.u.).

With “TGTCTACATACGCTCAATCCATTATTCCCCTATTACATCACGGAGTCACCTAGTGCAG”, the binding signal is 9500 fluorescence intensity (a.u.). Regarding “GTACTCGTACTTCTCTTCTTGTCATCTTGACCGTCCGTCCCGGAGTCACCTAGTGCAG”, the binding signal is 9270 fluorescence intensity (a.u.). Under “CGTAAGCCATCCACGCACCACCCCATAAAATTTGAGATCCCGGAGTCACCTAGTGCAG” stands 8710 fluorescence intensity (a.u.); under “GTGATCGCTGGTTTATCTAGCTGTGACTAGTCACGTCCATCGGAGTCACCTAGTGCAG”, 8540 fluorescence intensity (a.u.); under “TAGCTTGGTGGTAAGGAAGGTTAGGGGCTATTTCTCCAATCGGAGTCACCTAGTGCAG”, 10100 fluorescence intensity (a.u.). Under “ATCACACCACCTGATCGTTTCCTCTCACCGTGGCGCGGCTCGGAGTCACCTAGTGCAG” stands 9940 fluorescence intensity (a.u.). Consider “TACTCATGGATGCCACCGTGTCTGCACGAATTTCCCTACCCGGAGTCACCTAGTGCAG”, for which the binding signal is 9100 fluorescence intensity (a.u.). For the sequence “AATCTCAGCCATCCGTTTTCATTAATGATCTAATCTCCAACGGAGTCACCTAGTGCAG”, the binding signal is 11300 fluorescence intensity (a.u.). As for “GGTAATATTAGTTGGTGTCCTGCCTTTACAATTATACGAACGGAGTCACCTAGTGCAG”, the binding signal is 8430 fluorescence intensity (a.u.). For “CCCGTCTCTCTCGCTACCCATCGGCTCCACCGCTACCCTCCGGAGTCACCTAGTGCAG”, the binding signal is 10800 fluorescence intensity (a.u.). For “TGTCAGGCTGATACGTGCGTCTGATTTTTTCTATCTCCATCGGAGTCACCTAGTGCAG” the value was 8340 fluorescence intensity (a.u.); for “TAATATTGTATCATGTTTTTATCATATTCATATTCATTTACGGAGTCACCTAGTGCAG”, 8930 fluorescence intensity (a.u.). For “TGGTTCGCTCGGTGGGTGGTGGTGGTTCTGTGAGCCCGCGCGGAGTCACCTAGTGCAG” the value was 18400 fluorescence intensity (a.u.); for “TGTGCGCACGCTTTTCAAATTGTTAAATGGTGTGTTTTTTCGGAGTCACCTAGTGCAG”, 8970 fluorescence intensity (a.u.); for “CTTCGCTCTTGGATTTCTTTACTTCTACGGTTCTTACTACCGGAGTCACCTAGTGCAG”, 11000 fluorescence intensity (a.u.).

With “TACTCGTTTTCTGCCTGATCATGCGATGGAGCCATCCTTACGGAGTCACCTAGTGCAG”, the binding signal was 8390 fluorescence intensity (a.u.). In the case of “TTCTCATCTTTTCTCTTATGCTTATGCGTATCATCTAAATCGGAGTCACCTAGTGCAG”, the binding signal was 10100 fluorescence intensity (a.u.). Consider “ACATGCGACGATCTTCTGTGTGGAGTTGGTTTCAGTGGGGCGGAGTCACCTAGTGCAG”, for which the binding signal is 8270 fluorescence intensity (a.u.).

As to “GAGTGTATTTCATCTCAAGTTAGCATGCGAGTTTTTTTTACGGAGTCACCTAGTGCAG”, the binding signal was 8210 fluorescence intensity (a.u.).

In the case of “CATTAAACTTTAAACAGTTTGACTTTGGTCAAAGTCAAAACGGAGTCACCTAGTGCAG”, the binding signal is 13100 fluorescence intensity (a.u.). Regarding “GCTATCACCCCAAGTACATCACTAGTATACATTATATTTTCGGAGTCACCTAGTGCAG”, the binding signal was 8500 fluorescence intensity (a.u.). For “TTTTTTGCTGTAAATACTTTTTCTCCTTTTTTATAAAATACGGAGTCACCTAGTGCAG”, the binding signal is 8580 fluorescence intensity (a.u.). As for “GTTTTCATACTTCCACGCCTCATGTTCCATCATCGTTTCACGGAGTCACCTAGTGCAG”, the binding signal was 11700 fluorescence intensity (a.u.). As for “GGTTAGGTTTTTTTATAGAGGGAGTAGTATGCAATTATTTCGGAGTCACCTAGTGCAG”, the binding signal was 9450 fluorescence intensity (a.u.). For “ATCGCCCGTGTCTTGTGTGATTTCACTCTCGCGAACCTTCCGGAGTCACCTAGTGCAG” the value was 13300 fluorescence intensity (a.u.); for “GGGCTTGGAGATCCCGTATATGGGCCCCATCTTCTCCACTCGGAGTCACCTAGTGCAG”, 9300 fluorescence intensity (a.u.). On to “ATCTCTTTTCCAGCGGATCACACGGCTCTCTGGTTCAGAGCGGAGTCACCTAGTGCAG”, for which the binding signal is 8780 fluorescence intensity (a.u.). Under “AACCGTTTTTCAAAATTTCTAGCCCTTGCTATTCAGGTTTCGGAGTCACCTAGTGCAG” stands 8620 fluorescence intensity (a.u.). Consider “GCCAGTTCACTTTGTCATTGTCCTTCTTGTTCTAGAGATGCGGAGTCACCTAGTGCAG”, for which the binding signal was 9210 fluorescence intensity (a.u.). For “TGCTGTTTTACCATTTAGTCGTACGCCGGTGGGACACCTACGGAGTCACCTAGTGCAG”, the binding signal was 9460 fluorescence intensity (a.u.). Regarding “CCCACGTATTCCCCACCTTATCTCACTGTCTCGTGGGCCCCGGAGTCACCTAGTGCAG”, the binding signal was 10500 fluorescence intensity (a.u.). For the sequence “GCCCGCACGGGAGGGAGGGAGGGAGGGAGCCCTCTCTCAACGGAGTCACCTAGTGCAG”, the binding signal is 8800 fluorescence intensity (a.u.).
